In article PMC9371934:
These are yes or no findings as the source states them, for the method shown. Some entries that bind do so weakly or less than the wild type. Sequences can lack the tags named with a protein.

Protein sequences, listed by entry. Tags and fused reporters are not part of them.
UniProt P35250: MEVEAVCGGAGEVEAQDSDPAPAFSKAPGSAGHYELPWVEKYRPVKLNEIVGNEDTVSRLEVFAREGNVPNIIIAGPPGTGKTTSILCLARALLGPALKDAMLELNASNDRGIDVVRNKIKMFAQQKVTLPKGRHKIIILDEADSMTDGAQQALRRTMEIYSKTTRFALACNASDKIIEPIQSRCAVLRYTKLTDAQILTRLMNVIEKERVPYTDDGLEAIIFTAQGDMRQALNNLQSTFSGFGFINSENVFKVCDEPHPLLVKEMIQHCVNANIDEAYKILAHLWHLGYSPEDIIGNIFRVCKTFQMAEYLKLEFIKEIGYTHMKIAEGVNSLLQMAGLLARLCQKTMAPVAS
UniProt P40938: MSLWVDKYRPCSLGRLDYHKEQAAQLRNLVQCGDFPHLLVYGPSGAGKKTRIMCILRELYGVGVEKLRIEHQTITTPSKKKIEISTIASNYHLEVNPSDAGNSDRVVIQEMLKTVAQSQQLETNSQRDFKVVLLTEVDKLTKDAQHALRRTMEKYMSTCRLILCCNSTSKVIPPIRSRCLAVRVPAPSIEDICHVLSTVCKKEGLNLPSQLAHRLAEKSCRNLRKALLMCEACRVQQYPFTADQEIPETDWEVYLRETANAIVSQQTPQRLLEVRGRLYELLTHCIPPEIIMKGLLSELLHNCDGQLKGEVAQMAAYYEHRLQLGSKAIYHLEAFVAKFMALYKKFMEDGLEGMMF

Key:
Experiment in all cases: cryo-EM structure; co-expressed, purified RAD17–RFC–9–1–1 (RAD17 fused to the C-terminus of RAD1) with excess ATPγS and a hairpin DNA (24 bp dsDNA, 24 nt 3′ overhang); 600 nM sample; 10 mM HEPES pH 7.5, 150 mM NaCl, 0.5 mM TCEP; map at 3.59 Å; both purified
[1] = biological target: RFC2 (human) (UniProt P35250)
[2] = biological target: RFC3 (human) (UniProt P40938)
[3] = biological target: T1, RAD1 (N-terminal half of the fusion chain RAD1–STREP–RAD17–HIS) (human) (UniProt O60671)
T1 sequence: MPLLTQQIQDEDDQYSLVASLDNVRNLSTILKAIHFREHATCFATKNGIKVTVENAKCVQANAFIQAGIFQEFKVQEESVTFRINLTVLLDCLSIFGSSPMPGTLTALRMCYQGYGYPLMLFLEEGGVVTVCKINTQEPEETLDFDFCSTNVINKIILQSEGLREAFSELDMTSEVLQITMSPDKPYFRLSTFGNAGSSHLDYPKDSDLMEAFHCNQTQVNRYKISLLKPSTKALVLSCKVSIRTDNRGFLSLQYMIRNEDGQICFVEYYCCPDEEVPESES

[4] = biological target: T2, HUS1 (human) (UniProt O60921)
T2 sequence: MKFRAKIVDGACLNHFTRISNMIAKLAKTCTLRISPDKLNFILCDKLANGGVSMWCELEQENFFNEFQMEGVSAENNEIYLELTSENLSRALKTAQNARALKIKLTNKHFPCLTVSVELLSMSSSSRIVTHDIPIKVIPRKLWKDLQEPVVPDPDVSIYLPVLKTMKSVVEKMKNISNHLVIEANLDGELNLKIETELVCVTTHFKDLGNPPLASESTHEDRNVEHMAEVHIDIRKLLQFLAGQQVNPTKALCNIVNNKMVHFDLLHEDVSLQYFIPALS

[5] = biological target: T3, RAD9–HIS (human) (UniProt Q99638)
T3 sequence: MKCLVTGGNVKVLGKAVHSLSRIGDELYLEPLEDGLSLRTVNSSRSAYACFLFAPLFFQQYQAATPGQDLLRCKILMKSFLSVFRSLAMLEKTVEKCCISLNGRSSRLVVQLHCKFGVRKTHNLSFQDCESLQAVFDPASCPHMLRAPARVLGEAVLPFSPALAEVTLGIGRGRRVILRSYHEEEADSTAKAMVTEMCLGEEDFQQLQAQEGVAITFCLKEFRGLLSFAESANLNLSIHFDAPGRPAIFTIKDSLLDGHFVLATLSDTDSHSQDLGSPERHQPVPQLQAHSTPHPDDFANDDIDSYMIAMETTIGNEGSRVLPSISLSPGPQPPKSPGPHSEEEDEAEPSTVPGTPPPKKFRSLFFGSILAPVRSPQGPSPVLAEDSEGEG

B1: RAD17 (C-terminal half of the fusion chain RAD1–STREP–RAD17–HIS) (protein, UniProt O75943 1-681)
chain: MSKTFLRPKVSSTKVTDWVDPSFDDFLECSGVSTITATSLGVNNSSHRRKNGPSTLESSRFPARKRGNLSSLEQIYGLENSKEYLSENEPWVDKYKPETQHELAVHKKKIEEVETWLKAQVLERQPKQGGSILLITGPPGCGKTTTLKILSKEHGIQVQEWINPVLPDFQKDDFKGMFNTESSFHMFPYQSQIAVFKEFLLRATKYNKLQMLGDDLRTDKKIILVEDLPNQFYRDSHTLHEVLRKYVRIGRCPLIFIISDSLSGDNNQRLLFPKEIQEECSISNISFNPVAPTIMMKFLNRIVTIEANKNGGKITVPDKTSLELLCQGCSGDIRSAINSLQFSSSKGENNLRPRKKGMSLKSDAVLSKSKRRKKPDRVFENQEVQAIGGKDVSLFLFRALGKILYCKRASLTELDSPRLPSHLSEYERDTLLVEPEEVVEMSHMPGDLFNLYLHQNYIDFFMEIDDIVRASEFLSFADILSGDWNTRSLLREYSTSIATRGVMHSNKARGYAHCQGGGSSFRPLHKPQWFLINKKYRENCLAAKALFPDFCLPALCLQTQLLPYLALLTIPMRNQAQISFIQDIGRLPLKRHFGRLKMEALTDREHGMIDPDSGDEAQLNGGHSAEESLGEPTQATVPETWSLPLSQNSASELPASQPQPFSAQGDMEENIIIEDYESDGT
In the case of B1, the binding [1] is reported as “binds” and the binding [2] is reported as “binds”.

B2: RAD9–HIS (protein, UniProt Q99638 1-391)
chain: MKCLVTGGNVKVLGKAVHSLSRIGDELYLEPLEDGLSLRTVNSSRSAYACFLFAPLFFQQYQAATPGQDLLRCKILMKSFLSVFRSLAMLEKTVEKCCISLNGRSSRLVVQLHCKFGVRKTHNLSFQDCESLQAVFDPASCPHMLRAPARVLGEAVLPFSPALAEVTLGIGRGRRVILRSYHEEEADSTAKAMVTEMCLGEEDFQQLQAQEGVAITFCLKEFRGLLSFAESANLNLSIHFDAPGRPAIFTIKDSLLDGHFVLATLSDTDSHSQDLGSPERHQPVPQLQAHSTPHPDDFANDDIDSYMIAMETTIGNEGSRVLPSISLSPGPQPPKSPGPHSEEEDEAEPSTVPGTPPPKKFRSLFFGSILAPVRSPQGPSPVLAEDSEGEG
B2 was tested, and the binding [3] was “binds”.

B3: RAD1 (N-terminal half of the fusion chain RAD1–STREP–RAD17–HIS) (protein, UniProt O60671 1-282)
chain: MPLLTQQIQDEDDQYSLVASLDNVRNLSTILKAIHFREHATCFATKNGIKVTVENAKCVQANAFIQAGIFQEFKVQEESVTFRINLTVLLDCLSIFGSSPMPGTLTALRMCYQGYGYPLMLFLEEGGVVTVCKINTQEPEETLDFDFCSTNVINKIILQSEGLREAFSELDMTSEVLQITMSPDKPYFRLSTFGNAGSSHLDYPKDSDLMEAFHCNQTQVNRYKISLLKPSTKALVLSCKVSIRTDNRGFLSLQYMIRNEDGQICFVEYYCCPDEEVPESES
For B3, the binding [4] was “binds”.

B4: HUS1 (protein, UniProt O60921 1-280)
chain: MKFRAKIVDGACLNHFTRISNMIAKLAKTCTLRISPDKLNFILCDKLANGGVSMWCELEQENFFNEFQMEGVSAENNEIYLELTSENLSRALKTAQNARALKIKLTNKHFPCLTVSVELLSMSSSSRIVTHDIPIKVIPRKLWKDLQEPVVPDPDVSIYLPVLKTMKSVVEKMKNISNHLVIEANLDGELNLKIETELVCVTTHFKDLGNPPLASESTHEDRNVEHMAEVHIDIRKLLQFLAGQQVNPTKALCNIVNNKMVHFDLLHEDVSLQYFIPALS
B4 was tested, and the binding [5] was “binds”.
